Binding data for 1 substance are collected here from article PMC8764100.

Amino acid sequences for entries named in this document (tags omitted).
UniProt Q9UQE7: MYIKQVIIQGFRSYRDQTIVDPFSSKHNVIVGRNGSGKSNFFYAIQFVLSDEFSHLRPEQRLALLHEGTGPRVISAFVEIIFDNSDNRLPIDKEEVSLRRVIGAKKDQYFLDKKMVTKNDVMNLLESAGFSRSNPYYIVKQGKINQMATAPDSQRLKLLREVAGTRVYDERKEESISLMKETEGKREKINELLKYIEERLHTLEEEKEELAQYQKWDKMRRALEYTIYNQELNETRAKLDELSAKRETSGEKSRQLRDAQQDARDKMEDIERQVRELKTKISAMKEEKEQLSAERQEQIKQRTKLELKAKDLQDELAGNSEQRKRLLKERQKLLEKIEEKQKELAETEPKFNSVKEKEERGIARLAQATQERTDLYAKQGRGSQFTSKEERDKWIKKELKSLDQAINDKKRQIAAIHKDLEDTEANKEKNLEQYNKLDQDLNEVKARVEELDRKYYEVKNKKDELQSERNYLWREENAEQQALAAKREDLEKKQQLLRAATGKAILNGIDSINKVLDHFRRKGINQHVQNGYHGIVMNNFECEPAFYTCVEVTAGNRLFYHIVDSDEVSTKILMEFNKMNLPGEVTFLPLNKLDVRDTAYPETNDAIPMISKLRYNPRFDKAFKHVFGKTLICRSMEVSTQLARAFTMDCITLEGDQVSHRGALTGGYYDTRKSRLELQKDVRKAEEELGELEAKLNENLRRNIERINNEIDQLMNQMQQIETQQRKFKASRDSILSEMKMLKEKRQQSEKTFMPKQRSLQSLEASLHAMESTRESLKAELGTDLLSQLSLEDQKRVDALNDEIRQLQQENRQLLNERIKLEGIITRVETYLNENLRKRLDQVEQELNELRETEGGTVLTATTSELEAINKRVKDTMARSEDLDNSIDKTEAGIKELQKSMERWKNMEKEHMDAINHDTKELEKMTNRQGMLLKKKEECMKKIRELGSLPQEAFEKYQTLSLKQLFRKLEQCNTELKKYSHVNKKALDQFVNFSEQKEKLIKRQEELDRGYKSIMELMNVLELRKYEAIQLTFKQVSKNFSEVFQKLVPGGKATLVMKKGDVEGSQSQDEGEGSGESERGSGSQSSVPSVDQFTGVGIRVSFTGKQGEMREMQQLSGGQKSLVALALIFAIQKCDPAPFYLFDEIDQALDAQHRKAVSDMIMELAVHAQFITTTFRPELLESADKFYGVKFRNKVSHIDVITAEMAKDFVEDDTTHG
UniProt P09874: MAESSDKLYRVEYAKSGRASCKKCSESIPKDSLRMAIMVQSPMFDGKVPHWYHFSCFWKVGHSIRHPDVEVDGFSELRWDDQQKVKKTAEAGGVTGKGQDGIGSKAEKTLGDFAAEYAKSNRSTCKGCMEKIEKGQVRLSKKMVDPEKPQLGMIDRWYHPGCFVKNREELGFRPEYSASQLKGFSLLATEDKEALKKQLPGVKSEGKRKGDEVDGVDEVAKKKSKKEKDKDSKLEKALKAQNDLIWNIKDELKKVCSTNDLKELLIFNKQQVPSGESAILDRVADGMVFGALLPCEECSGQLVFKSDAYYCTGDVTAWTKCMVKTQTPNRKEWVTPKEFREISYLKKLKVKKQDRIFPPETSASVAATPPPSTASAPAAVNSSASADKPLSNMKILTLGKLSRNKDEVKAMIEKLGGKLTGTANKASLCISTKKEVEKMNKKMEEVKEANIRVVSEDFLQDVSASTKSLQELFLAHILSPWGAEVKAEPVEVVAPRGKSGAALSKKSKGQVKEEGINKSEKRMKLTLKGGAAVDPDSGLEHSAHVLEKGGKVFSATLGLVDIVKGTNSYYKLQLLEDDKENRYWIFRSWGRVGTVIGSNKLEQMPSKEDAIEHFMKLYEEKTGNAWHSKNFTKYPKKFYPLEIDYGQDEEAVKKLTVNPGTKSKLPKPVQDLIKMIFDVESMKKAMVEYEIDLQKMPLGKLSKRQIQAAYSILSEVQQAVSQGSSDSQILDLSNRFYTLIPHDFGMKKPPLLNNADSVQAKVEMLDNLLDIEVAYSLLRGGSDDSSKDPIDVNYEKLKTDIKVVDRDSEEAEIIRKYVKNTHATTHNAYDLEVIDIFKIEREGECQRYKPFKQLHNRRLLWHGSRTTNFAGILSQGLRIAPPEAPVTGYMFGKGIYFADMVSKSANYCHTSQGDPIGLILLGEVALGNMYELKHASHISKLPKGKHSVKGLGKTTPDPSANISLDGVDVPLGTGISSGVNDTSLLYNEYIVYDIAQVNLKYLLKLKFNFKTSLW

These are yes or no findings as the source states them, for the method shown. Binding seen in cells or lysates may run through a third protein. Some entries that bind do so weakly or less than the wild type.

This test has as its target SMC3 component of cohesin (human (endogenous in Mutu-LCL)) (UniProt Q9UQE7). The experiment in a line: co-IP; SMC3 antibody (10 ug) or normal rabbit IgG, protein A magnetic beads, lysate of 10 million LCLs in RIPA buffer, with or without 2.5 uM olaparib for 72 h; washed three times in RIPA; immunoblot for SMC3 and PARP1; three biological replicates.

For “Poly [ADP-ribose] polymerase 1 (PARP1) (from UniProt P09874 1-1014)”, the binding result is reported as “binds”.
